Measurements published in patent US20200407442A1.
These are yes or no findings as the source states them, for the method shown. Some entries that bind do so weakly or less than the wild type. For some assays here: Tags and fused reporters may be left off the sequences shown. One block for each binder: values may come before it.

Legend:
[1] = biological target: T1, mFc-tagged LAG-3 protein (human) (UniProt P18627); experiment: ELISA blocking: antibody mixed with mFc-tagged LAG-3, binding of LAG-3 to plate-coated Galectin-3
T1 sequence: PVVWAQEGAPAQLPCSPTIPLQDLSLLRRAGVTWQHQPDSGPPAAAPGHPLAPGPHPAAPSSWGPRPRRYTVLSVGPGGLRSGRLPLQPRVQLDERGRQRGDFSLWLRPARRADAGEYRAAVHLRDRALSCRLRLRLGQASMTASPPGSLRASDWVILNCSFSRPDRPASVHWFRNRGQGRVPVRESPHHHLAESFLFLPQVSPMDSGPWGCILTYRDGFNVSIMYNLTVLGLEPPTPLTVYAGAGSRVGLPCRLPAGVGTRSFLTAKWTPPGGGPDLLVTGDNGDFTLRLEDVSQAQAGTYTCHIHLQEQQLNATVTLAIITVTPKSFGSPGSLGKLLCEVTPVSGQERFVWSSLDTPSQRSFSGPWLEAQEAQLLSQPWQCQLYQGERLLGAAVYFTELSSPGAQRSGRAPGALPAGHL

[2] = biological target: T2, human LAG-3 protein (SPR analyte) (human) (UniProt P18627); experiment: SPR
T2 sequence: T1 sequence

[3] = biological target: T1, mFc-tagged LAG-3 protein (human); experiment: FACS blocking: antibody pre-incubated with mFc-tagged LAG-3, binding of LAG-3 to MHC-II on Raji cells detected with anti-mouse IgG Fc-PE
[4] = biological target: T1, mFc-tagged LAG-3 protein (human); experiment: ELISA blocking: antibody mixed with mFc-tagged LAG-3, binding of LAG-3 to plate-coated human LSECtin

- binding [1]: binds
- binding [2]: binds
- binding [3]: binds
- binding [4]: binds
B1: 3.40.19-uAb-IgG4L (antibody, V domains shown)
VH: QLQLQESGPGLVKPSETLSLTCTVSGDSISSTSYYWGWIRQPPGKGLEWIGSFYYSGSTYYNPSLKSRVTISVDTSKNQFSLKLNSVTAADTAVYYCARMQLWSYDVDVWGQGTTVTVSS
VL: QSALTQPASVSGSPGQSITISCTGTSSDVGGYDYVAWYQQHPGKVPKLMIYDVSERPSGVSNRFSGSKSGNTASLTISGLQAEDEADYYCSSYTSTTTLVVFGGGTKLSVL

- binding [1]: binds
- binding [2]: binds
- binding [3]: binds
- binding [4]: binds
B2: 1.53.3-uAb-IgG4k (antibody, V domains shown)
VH: QVQLQQWGAGLLKPSETLSLTCGVYGGSFSGYYWSWIRQPPGMGLEWIGEINHRGNTNYNPSLKSRVTISEDTSKNQFSLRLSSVTAADTAVYFCTRGEDYSDYDYYGDFWGQGTLVTVSS
VL: EIVLTQSPATLSLSQGERATLSCRASQSISSYLAWYQQKPGQAPRLLIYAASNRATGIPARFSGSGSGTDFTLTISSLEPEDFAIYYCQQRSNWPLTFGGGTKVEIK
